Reference: the supplement of paper PMC10849652
This is one part of the list.

The chains behind the UniProt entries cited, without tags or fusion partners. Where a name states a change or a piece, a line headed by the entry shows the natural chain unless it says otherwise.
UniProt Q9NV70: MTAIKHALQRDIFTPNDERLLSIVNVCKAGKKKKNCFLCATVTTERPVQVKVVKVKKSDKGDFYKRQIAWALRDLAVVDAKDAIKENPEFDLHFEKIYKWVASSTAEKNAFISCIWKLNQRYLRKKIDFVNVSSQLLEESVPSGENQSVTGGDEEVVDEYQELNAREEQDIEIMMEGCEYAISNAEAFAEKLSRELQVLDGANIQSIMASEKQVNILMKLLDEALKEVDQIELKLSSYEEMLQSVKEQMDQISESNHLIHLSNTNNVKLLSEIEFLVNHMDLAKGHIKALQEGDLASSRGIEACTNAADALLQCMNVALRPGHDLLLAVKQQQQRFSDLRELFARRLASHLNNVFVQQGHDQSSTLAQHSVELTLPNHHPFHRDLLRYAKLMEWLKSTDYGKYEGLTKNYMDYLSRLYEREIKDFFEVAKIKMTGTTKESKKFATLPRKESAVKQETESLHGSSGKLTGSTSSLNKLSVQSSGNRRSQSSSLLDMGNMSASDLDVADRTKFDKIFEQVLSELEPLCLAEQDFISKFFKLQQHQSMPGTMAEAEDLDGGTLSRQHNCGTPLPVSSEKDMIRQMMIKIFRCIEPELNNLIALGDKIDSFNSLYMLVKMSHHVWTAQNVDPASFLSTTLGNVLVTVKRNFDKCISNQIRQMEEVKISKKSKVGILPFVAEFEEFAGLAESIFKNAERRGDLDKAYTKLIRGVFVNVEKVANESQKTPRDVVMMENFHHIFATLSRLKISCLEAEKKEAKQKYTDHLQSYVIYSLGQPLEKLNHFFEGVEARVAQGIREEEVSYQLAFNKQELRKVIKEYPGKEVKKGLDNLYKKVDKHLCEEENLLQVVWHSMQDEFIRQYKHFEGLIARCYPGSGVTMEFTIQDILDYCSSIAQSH
UniProt Q16134: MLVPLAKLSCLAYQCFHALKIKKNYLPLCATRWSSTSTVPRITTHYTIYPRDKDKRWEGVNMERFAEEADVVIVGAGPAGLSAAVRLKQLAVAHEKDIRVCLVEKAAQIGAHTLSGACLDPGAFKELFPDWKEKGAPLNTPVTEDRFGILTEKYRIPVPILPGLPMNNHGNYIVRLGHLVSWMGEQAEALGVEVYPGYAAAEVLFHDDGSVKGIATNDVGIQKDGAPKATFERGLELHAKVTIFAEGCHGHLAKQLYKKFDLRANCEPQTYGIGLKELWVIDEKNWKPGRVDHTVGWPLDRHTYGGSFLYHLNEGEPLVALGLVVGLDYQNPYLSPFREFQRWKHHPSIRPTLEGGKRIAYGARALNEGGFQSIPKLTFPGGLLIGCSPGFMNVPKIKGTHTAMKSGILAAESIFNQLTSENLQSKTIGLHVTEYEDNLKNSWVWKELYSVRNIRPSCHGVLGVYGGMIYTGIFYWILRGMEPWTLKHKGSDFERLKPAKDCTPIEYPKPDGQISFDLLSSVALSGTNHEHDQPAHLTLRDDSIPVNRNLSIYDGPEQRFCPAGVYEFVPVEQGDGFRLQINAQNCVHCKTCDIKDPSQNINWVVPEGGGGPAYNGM
UniProt Q9H0X4: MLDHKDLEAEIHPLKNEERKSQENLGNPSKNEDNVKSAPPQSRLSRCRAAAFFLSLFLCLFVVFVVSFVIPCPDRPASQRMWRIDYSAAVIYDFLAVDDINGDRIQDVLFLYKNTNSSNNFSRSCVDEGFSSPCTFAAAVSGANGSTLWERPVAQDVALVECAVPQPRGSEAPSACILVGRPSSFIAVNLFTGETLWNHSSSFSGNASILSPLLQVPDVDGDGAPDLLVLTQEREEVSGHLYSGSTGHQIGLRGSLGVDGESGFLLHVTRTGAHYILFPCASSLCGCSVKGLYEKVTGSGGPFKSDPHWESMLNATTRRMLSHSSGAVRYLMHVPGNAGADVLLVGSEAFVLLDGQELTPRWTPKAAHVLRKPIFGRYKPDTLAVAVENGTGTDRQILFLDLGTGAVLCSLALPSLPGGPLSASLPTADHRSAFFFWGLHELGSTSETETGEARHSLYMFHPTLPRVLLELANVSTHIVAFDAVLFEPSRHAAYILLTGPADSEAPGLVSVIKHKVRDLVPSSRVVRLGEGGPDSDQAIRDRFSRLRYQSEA
UniProt Q9NRY5: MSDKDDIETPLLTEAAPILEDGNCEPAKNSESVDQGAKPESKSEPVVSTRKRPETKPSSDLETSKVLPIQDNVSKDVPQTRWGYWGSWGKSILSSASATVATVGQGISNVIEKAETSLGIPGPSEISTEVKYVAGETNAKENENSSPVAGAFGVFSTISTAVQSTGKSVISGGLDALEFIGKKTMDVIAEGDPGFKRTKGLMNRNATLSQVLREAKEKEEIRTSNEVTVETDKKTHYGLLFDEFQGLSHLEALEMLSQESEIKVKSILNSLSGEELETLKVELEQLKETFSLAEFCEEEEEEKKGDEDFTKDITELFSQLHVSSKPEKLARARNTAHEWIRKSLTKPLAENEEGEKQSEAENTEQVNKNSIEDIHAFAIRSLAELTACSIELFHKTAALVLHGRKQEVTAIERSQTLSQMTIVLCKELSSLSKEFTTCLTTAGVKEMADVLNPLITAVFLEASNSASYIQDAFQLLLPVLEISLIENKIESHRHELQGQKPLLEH
UniProt Q9NVM1: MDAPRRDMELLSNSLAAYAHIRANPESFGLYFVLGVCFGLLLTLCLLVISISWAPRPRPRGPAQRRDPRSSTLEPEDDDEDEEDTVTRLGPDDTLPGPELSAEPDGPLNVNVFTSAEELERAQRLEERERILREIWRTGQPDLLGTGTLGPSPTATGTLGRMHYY
UniProt Q9BQ89: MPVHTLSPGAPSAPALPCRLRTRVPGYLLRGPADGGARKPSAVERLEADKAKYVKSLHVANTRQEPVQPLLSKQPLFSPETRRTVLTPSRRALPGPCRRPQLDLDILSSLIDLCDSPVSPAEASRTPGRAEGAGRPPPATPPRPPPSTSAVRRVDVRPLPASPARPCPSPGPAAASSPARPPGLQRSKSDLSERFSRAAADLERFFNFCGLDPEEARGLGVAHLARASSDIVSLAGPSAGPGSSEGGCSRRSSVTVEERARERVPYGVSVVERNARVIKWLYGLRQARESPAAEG
UniProt Q9BVV8: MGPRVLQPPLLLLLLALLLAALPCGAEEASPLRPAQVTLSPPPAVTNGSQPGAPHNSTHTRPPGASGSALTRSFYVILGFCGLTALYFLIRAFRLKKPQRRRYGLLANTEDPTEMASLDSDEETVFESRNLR
UniProt Q6NZ36: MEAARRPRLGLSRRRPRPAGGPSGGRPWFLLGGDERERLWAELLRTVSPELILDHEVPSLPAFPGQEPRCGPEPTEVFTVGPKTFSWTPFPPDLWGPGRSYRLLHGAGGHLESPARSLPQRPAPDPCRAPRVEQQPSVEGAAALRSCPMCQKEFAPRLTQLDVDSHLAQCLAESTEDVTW
UniProt Q14264: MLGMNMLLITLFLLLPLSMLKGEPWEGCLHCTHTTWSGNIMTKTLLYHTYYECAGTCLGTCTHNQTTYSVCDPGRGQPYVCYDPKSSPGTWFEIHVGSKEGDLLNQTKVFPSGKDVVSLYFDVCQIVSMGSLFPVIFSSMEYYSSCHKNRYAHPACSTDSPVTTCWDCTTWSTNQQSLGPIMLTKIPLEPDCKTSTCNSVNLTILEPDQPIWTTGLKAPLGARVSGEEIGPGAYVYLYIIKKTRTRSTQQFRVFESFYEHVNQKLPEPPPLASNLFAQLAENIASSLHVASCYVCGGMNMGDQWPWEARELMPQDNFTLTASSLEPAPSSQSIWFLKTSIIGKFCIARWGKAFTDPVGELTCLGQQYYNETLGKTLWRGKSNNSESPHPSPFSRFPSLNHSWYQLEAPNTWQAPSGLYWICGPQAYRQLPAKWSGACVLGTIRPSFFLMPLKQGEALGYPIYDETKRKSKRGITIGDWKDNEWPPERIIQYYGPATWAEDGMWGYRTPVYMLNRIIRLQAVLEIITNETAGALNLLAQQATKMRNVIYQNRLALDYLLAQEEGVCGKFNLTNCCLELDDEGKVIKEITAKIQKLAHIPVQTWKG
UniProt Q5XKK7: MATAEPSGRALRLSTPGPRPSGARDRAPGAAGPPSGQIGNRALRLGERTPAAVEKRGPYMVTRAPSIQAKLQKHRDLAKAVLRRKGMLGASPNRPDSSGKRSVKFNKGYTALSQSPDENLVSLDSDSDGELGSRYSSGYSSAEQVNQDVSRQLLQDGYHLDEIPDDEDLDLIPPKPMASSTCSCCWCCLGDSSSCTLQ
UniProt O94988: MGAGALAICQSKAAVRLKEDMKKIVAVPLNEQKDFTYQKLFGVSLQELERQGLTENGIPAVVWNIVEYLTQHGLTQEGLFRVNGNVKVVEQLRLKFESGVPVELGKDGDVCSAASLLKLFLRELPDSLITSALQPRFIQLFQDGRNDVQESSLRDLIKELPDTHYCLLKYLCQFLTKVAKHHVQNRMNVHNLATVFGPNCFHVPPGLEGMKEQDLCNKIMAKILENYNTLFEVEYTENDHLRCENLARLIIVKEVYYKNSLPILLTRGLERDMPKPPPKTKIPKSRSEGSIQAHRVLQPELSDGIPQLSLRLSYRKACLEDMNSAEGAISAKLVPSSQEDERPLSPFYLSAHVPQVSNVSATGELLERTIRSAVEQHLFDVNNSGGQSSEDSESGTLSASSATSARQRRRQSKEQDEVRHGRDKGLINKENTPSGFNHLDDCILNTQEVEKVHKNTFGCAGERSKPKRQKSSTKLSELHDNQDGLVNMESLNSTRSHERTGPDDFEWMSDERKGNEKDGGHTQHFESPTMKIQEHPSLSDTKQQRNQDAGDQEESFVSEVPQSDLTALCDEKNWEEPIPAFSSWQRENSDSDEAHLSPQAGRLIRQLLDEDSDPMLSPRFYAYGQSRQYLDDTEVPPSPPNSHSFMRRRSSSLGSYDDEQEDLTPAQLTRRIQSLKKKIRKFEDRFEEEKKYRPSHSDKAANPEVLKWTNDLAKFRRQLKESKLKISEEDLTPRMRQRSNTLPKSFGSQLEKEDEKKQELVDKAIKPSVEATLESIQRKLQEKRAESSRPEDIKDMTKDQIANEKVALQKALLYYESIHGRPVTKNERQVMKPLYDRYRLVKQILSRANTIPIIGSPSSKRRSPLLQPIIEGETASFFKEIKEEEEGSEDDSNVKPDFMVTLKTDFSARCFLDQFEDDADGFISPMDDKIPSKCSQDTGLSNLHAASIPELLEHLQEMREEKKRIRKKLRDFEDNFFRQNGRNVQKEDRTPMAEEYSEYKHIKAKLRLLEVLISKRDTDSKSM
UniProt Q5VUB5: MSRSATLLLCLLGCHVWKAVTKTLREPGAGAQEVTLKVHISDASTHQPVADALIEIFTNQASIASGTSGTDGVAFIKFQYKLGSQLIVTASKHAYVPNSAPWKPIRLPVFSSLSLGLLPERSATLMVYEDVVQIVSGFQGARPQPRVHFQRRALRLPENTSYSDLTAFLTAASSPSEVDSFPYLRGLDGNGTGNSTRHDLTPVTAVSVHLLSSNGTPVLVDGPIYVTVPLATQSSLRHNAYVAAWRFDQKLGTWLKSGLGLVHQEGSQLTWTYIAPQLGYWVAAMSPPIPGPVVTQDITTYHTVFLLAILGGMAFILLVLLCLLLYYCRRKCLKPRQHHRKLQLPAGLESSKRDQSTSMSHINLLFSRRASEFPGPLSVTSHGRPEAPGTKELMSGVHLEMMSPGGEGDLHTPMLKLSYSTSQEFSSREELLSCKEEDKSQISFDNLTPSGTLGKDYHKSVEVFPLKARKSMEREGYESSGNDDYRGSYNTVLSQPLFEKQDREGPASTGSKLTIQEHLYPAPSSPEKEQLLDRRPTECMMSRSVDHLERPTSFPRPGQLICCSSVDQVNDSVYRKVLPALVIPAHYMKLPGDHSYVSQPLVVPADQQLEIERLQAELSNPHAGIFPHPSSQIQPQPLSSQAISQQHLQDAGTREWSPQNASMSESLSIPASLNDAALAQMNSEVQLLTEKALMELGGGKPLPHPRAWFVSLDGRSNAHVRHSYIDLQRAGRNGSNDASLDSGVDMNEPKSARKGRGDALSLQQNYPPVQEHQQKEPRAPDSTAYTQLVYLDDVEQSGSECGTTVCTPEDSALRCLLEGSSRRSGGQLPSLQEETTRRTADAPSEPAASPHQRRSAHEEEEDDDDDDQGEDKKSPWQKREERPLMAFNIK
UniProt Q8WUF8: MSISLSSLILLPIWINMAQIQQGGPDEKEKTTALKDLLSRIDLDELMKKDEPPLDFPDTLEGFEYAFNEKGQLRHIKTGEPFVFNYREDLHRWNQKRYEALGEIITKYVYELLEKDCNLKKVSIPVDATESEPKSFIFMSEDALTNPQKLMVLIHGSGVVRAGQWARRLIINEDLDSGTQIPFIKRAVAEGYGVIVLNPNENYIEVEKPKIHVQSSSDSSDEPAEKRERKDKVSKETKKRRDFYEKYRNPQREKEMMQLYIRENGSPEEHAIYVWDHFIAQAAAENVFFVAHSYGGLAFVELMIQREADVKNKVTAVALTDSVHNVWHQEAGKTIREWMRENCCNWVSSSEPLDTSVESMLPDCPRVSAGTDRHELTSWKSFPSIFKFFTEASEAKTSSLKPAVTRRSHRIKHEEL

Key:
Assay in all cases: log2 fold change, soluble protein after heating vs DMSO (PISA); higher = thermal stabilisation; K562 lysate, 10 uM; active = over 0.2 and 3.5 SD of the protein, either way, in both replicates (recomputed)
[1] = compound: NCC(=O)Nc1ccc(-n2nc(C(F)(F)F)cc2-c2ccc3c(ccc4ccccc43)c2)cc1
How it was run: (§1)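 K562 pellets were dounce-homogenised in PBS pH 7.4 containing 1 mM MgCl2, and the crude extract, at 1 mg/mL protein, was exposed to 10 μM compound for 30 min. Aliquots were heated for 3 min across 48°C-58°C, pooled, brought to 0.5% NP-40 at 4°C and spun at 21,000xg for 90 min, with the supernatant taken as soluble protein. TMTpro 16plex LC-MS/MS with equalised channel sums quantified that protein. Values are log-two fold changes in thermal stability relative to solvent controls, taken from duplicates.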

vorinostat = compound: O=C(CCCCCCC(=O)Nc1ccccc1)NO [vorinostat]
How it was run: as §1

silmitasertib = compound: O=C(O)c1ccc2c(c1)nc(Nc1cccc(Cl)c1)c1ccncc12 [silmitasertib]
How it was run: as §1

[2] = compound: O=C1NC(=O)C(c2cnc3ccccn23)=C1c1cn2c3c(cc(F)cc13)CN(C(=O)N1CCCCC1)CC2
How it was run: as §1

entospletinib = compound: c1cn2cc(-c3ccc4cn[nH]c4c3)nc(Nc3ccc(N4CCOCC4)cc3)c2n1 [entospletinib]
How it was run: as §1

For FAM222B (UniProt Q8WU58), the log2 fold change [1] was inactive: 0.145, the log2 fold change (vorinostat) was inactive: -0.221 and the log2 fold change (silmitasertib) was inactive: 0.086. For the same target, the log2 fold change [2] was inactive: 0 and the log2 fold change (entospletinib) was inactive: -0.117.
In the case of EVL isoform 2 (UniProt Q9UI08), the log2 fold change [1] is reported as inactive: 0.024, the log2 fold change (vorinostat) is reported as inactive: -0.057 and the log2 fold change (silmitasertib) is reported as inactive: -0.19. For the same target, the log2 fold change [2] was inactive: 0.002 and the log2 fold change (entospletinib) was inactive: -0.053.
For EXOC1 (UniProt Q9NV70), the log2 fold change [1] was inactive: -0.019, the log2 fold change (vorinostat) was active: -0.45 and the log2 fold change (silmitasertib) was inactive: 0.075. The log2 fold change [2] was inactive: -0.019 and the log2 fold change (entospletinib) was inactive: 0.019.
In the case of ETFDH (UniProt Q16134), the log2 fold change [1] is reported as inactive: -0.007, the log2 fold change (vorinostat) is reported as inactive: 0.117 and the log2 fold change (silmitasertib) is reported as inactive: 0.035. For the same target, the log2 fold change [2] was inactive: -0.034 and the log2 fold change (entospletinib) was inactive: -0.003.
With EXOC6 (UniProt Q8TAG9) the log2 fold change [1] was inactive: -0.074, the log2 fold change (vorinostat) was active: -0.301 and the log2 fold change (silmitasertib) was inactive: 0.057. For the same target, the log2 fold change [2] was inactive: -0.006 and the log2 fold change (entospletinib) was inactive: 0.021.
FAM136A (UniProt Q96C01) was tested, and the log2 fold change [1] was inactive: -0.032, the log2 fold change (vorinostat) was inactive: 0.097 and the log2 fold change (silmitasertib) was inactive: -0.013. For the same target, the log2 fold change [2] was inactive: 0.015 and the log2 fold change (entospletinib) was inactive: -0.123.
FAM234A (UniProt Q9H0X4) was tested, and the log2 fold change [1] was inactive: 0.074, the log2 fold change (vorinostat) was inactive: 0.112 and the log2 fold change (silmitasertib) was inactive: -0.055. For the same target, the log2 fold change [2] was inactive: -0.007 and the log2 fold change (entospletinib) was inactive: -0.02.
FAM49A (UniProt Q9H0Q0) was tested, and the log2 fold change [1] was inactive: 0.075, the log2 fold change (vorinostat) was inactive: -0.274 and the log2 fold change (silmitasertib) was inactive: 0.167. For the same target, the log2 fold change [2] was inactive: 0.218 and the log2 fold change (entospletinib) was inactive: -0.083.
FAM83A (UniProt Q86UY5) was tested, and the log2 fold change [1] was inactive: -0.049, the log2 fold change (vorinostat) was active: -0.417 and the log2 fold change (silmitasertib) was inactive: -0.034. For the same target, the log2 fold change [2] was inactive: -0.052 and the log2 fold change (entospletinib) was inactive: -0.002.
FAHD1 (UniProt Q6P587) was tested, and the log2 fold change [1] was inactive: 0.17, the log2 fold change (vorinostat) was inactive: 0.092 and the log2 fold change (silmitasertib) was inactive: -0.029. The log2 fold change [2] was inactive: 0.048 and the log2 fold change (entospletinib) was inactive: 0.011.
In the case of EXOSC10 (UniProt Q01780), the log2 fold change [1] is reported as inactive: -0.015, the log2 fold change (vorinostat) is reported as inactive: 0.012 and the log2 fold change (silmitasertib) is reported as inactive: 0.002. For the same target, the log2 fold change [2] was inactive: 0 and the log2 fold change (entospletinib) was inactive: 0.014.
With FAM120B (UniProt Q96EK7) the log2 fold change [1] was inactive: -0.002, the log2 fold change (vorinostat) was active: -0.299 and the log2 fold change (silmitasertib) was inactive: 0.041. For the same target, the log2 fold change [2] was inactive: -0.022 and the log2 fold change (entospletinib) was inactive: -0.001.
With FAM114A2 (UniProt Q9NRY5) the log2 fold change [1] was inactive: -0.056, the log2 fold change (vorinostat) was inactive: 0.262 and the log2 fold change (silmitasertib) was inactive: -0.015. The log2 fold change [2] was inactive: -0.034 and the log2 fold change (entospletinib) was inactive: 0.
In the case of EVA1B (UniProt Q9NVM1), the log2 fold change (vorinostat) is reported as inactive: 0.141, the log2 fold change (silmitasertib) is reported as inactive: -0.002 and the log2 fold change [2] is reported as inactive: -0.041.
With ETV3 (UniProt P41162) the log2 fold change (entospletinib) was inactive: -0.054.
In the case of ETV6 (UniProt P41212), the log2 fold change [1] is reported as inactive: 0.085, the log2 fold change [2] is reported as inactive: 0.042 and the log2 fold change (entospletinib) is reported as inactive: 0.077.
With ESPN (UniProt B1AK53) the log2 fold change (entospletinib) was inactive: 0.023.
With EXOG (UniProt Q9Y2C4) the log2 fold change [1] was inactive: -0.051, the log2 fold change (vorinostat) was inactive: 0.056 and the log2 fold change (silmitasertib) was inactive: 0.038. For the same target, the log2 fold change (entospletinib) was inactive: 0.339.
In the case of FAM135A (UniProt Q9P2D6), the log2 fold change [2] is reported as inactive: 0.036.
With EURL (UniProt Q9NYK6) the log2 fold change (vorinostat) was inactive: 0.032 and the log2 fold change (silmitasertib) was inactive: 0.049.
With ETAA1 (UniProt Q9NY74) the log2 fold change [1] was inactive: 0.012, the log2 fold change (vorinostat) was inactive: 0.431 and the log2 fold change (silmitasertib) was inactive: 0.76. For the same target, the log2 fold change (entospletinib) was inactive: 0.088.
FAM110A (UniProt Q9BQ89) was tested, and the log2 fold change (vorinostat) was inactive: -0.141, the log2 fold change (silmitasertib) was inactive: -0.112 and the log2 fold change [2] was inactive: -0.167.
FAM174C (UniProt Q9BVV8) was tested, and the log2 fold change (vorinostat) was inactive: 0.322 and the log2 fold change (silmitasertib) was inactive: 0.154.
For FAAP20 isoform 2 (UniProt Q6NZ36), the log2 fold change [2] was inactive: 0.14.
ERV3-1 (UniProt Q14264) was tested, and the log2 fold change (vorinostat) was inactive: 0.047, the log2 fold change (silmitasertib) was inactive: -0.083 and the log2 fold change [2] was inactive: -0.04. The log2 fold change (entospletinib) was inactive: 0.229.
With EXOC3L2, A0A1C7CYX0 the log2 fold change (vorinostat) was inactive: 0.013, the log2 fold change (silmitasertib) was inactive: -0.061 and the log2 fold change [2] was inactive: 0.007. The log2 fold change (entospletinib) was inactive: -0.098.
With EWSR1 (UniProt H7BY36) the log2 fold change [1] was inactive: 0.136, the log2 fold change [2] was inactive: -0.047 and the log2 fold change (entospletinib) was inactive: 0.016.
ERN1 (UniProt O75460) was tested, and the log2 fold change (vorinostat) was inactive: -0.387, the log2 fold change (silmitasertib) was inactive: 0.048 and the log2 fold change (entospletinib) was inactive: -0.045.
With FAM219B (UniProt Q5XKK7) the log2 fold change [2] was inactive: 0.224.
With FAM13A (UniProt O94988) the log2 fold change [2] was inactive: 0.074.
F2 (UniProt P00734) was tested, and the log2 fold change (entospletinib) was inactive: 0.042.
With FAM178B (UniProt Q8IXR5) the log2 fold change [2] was inactive: 0.082 and the log2 fold change (entospletinib) was inactive: -0.106.
With FAM114A1 (UniProt Q8IWE2) the log2 fold change [1] was inactive: 0.228, the log2 fold change (vorinostat) was inactive: 0.25 and the log2 fold change (silmitasertib) was inactive: -0.135. The log2 fold change (entospletinib) was inactive: -0.063.
In the case of EXO5 (UniProt Q9H790), the log2 fold change (vorinostat) is reported as inactive: 0.043, the log2 fold change (silmitasertib) is reported as inactive: -0.06 and the log2 fold change [2] is reported as inactive: 0.054.
For FAM171A2 (UniProt A8MVW0), the log2 fold change (vorinostat) was inactive: -0.031 and the log2 fold change (silmitasertib) was inactive: -0.042.
For FAM171A1 (UniProt Q5VUB5), the log2 fold change (vorinostat) was inactive: -0.058 and the log2 fold change (silmitasertib) was inactive: -0.01.
With FAM172A (UniProt Q8WUF8) the log2 fold change [1] was inactive: 0.063, the log2 fold change (vorinostat) was inactive: 0.175 and the log2 fold change (silmitasertib) was inactive: -0.084. The log2 fold change (entospletinib) was inactive: 0.044.
FAH isoform 2 (UniProt P16930) was tested, and the log2 fold change [1] was inactive: 0.075, the log2 fold change [2] was inactive: -0.056 and the log2 fold change (entospletinib) was inactive: 0.032.
